Data from the supplement of paper PMC10849652.
The other results are listed elsewhere or left out.

Protein sequences, listed by entry. Tags and fused reporters are not part of them. Lines headed by an entry give the natural chain unless they say otherwise; changes in a name come on top.
UniProt O15164: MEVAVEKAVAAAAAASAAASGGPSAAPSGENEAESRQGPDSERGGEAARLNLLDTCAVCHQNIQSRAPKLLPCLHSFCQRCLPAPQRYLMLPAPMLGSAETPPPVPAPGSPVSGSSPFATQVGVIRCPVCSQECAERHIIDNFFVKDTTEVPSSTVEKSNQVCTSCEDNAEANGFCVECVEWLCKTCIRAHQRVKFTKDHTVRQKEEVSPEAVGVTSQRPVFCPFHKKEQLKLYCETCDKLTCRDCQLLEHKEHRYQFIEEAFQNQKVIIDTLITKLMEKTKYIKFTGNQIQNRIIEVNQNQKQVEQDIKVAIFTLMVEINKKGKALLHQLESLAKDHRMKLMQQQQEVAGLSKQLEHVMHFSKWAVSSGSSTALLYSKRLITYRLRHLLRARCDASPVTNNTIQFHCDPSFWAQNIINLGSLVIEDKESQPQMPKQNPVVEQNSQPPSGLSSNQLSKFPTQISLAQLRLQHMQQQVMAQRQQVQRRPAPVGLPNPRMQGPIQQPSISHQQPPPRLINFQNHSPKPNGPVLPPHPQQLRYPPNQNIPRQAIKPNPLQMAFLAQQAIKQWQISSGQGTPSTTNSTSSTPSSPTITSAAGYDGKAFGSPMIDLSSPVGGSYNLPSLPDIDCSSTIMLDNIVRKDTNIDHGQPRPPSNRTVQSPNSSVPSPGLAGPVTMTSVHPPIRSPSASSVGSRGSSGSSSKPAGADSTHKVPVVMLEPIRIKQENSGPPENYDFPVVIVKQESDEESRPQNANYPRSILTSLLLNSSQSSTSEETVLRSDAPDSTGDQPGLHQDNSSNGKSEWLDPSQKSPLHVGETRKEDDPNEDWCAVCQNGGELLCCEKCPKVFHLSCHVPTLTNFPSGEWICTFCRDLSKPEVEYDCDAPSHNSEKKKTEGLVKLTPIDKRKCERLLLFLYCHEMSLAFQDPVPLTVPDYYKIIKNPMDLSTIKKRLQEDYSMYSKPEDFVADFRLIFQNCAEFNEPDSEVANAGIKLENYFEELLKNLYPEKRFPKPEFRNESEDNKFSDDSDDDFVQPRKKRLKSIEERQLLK
UniProt P29144: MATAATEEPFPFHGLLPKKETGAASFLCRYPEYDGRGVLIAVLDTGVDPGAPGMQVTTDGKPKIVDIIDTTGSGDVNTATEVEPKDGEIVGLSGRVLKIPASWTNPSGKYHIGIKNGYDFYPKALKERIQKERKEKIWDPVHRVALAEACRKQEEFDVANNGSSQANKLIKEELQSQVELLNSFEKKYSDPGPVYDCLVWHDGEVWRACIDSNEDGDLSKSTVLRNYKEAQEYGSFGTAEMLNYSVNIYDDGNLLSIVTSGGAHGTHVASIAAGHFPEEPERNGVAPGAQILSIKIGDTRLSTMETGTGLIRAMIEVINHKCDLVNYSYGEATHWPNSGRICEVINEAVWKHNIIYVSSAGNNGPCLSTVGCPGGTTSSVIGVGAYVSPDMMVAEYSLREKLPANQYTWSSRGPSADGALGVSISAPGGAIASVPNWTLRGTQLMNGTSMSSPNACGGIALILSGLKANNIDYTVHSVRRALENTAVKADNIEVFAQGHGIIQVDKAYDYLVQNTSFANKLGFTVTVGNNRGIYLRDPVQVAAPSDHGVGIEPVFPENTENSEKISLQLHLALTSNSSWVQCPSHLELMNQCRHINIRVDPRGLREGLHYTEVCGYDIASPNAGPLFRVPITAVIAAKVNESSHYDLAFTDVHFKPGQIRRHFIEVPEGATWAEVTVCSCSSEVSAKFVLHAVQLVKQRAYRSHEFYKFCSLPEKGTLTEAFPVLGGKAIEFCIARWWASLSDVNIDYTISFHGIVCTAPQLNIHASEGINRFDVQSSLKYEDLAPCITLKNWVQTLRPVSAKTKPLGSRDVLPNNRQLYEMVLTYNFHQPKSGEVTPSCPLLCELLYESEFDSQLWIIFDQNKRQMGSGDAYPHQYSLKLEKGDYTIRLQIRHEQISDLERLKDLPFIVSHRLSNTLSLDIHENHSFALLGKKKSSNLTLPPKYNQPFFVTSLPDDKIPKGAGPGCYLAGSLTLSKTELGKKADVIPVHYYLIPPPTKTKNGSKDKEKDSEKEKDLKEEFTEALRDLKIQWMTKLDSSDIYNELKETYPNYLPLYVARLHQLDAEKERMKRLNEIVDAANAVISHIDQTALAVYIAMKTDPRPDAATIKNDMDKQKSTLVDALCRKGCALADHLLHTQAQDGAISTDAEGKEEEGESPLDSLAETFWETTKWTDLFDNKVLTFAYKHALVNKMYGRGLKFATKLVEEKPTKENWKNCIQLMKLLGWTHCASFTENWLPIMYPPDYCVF
UniProt O43715: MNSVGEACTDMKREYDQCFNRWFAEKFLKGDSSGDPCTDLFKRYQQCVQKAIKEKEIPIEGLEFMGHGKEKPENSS
UniProt O96008: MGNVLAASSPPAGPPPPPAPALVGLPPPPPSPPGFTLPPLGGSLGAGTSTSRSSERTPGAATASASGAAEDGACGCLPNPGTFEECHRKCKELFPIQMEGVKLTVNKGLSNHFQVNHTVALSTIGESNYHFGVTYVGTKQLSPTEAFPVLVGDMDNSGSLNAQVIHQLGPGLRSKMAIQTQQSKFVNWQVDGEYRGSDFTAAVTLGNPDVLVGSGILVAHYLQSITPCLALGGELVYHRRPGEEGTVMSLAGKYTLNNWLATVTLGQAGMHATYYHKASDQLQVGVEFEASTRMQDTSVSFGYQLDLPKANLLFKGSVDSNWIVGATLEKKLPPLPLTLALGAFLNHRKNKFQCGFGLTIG
UniProt Q9UKE5: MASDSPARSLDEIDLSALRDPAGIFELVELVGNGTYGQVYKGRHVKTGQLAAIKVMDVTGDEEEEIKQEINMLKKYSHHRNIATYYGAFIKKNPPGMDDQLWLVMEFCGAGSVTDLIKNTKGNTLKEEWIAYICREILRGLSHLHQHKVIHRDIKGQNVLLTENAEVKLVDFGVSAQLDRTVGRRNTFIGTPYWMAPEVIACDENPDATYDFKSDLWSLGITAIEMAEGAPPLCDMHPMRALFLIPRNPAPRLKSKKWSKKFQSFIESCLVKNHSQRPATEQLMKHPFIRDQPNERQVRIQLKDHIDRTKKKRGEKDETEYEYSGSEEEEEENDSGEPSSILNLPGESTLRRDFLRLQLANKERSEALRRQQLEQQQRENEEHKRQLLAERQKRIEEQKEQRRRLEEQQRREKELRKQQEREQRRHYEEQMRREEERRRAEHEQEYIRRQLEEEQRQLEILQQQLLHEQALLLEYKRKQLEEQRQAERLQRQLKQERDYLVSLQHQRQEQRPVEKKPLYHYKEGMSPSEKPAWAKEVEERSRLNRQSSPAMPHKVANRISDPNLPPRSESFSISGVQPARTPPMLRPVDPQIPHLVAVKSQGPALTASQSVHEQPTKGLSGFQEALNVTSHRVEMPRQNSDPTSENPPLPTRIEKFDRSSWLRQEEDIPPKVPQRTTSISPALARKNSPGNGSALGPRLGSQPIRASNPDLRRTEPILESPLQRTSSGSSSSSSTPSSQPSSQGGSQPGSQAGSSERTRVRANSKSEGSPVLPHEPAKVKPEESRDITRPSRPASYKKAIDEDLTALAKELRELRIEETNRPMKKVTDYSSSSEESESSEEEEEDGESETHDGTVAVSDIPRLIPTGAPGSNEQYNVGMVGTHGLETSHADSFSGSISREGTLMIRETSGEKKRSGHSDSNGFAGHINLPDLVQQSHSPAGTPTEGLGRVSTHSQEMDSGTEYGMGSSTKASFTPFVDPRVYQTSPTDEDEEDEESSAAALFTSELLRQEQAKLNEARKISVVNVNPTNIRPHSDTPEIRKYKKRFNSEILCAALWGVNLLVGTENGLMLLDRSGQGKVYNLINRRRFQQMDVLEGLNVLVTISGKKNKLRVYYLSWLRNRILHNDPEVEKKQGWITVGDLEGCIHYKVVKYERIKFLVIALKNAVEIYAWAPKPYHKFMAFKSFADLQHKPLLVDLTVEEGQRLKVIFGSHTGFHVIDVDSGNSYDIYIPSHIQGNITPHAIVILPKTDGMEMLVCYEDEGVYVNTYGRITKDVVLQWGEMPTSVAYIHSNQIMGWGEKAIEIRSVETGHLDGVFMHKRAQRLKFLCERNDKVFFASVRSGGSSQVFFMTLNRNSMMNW
UniProt P11387: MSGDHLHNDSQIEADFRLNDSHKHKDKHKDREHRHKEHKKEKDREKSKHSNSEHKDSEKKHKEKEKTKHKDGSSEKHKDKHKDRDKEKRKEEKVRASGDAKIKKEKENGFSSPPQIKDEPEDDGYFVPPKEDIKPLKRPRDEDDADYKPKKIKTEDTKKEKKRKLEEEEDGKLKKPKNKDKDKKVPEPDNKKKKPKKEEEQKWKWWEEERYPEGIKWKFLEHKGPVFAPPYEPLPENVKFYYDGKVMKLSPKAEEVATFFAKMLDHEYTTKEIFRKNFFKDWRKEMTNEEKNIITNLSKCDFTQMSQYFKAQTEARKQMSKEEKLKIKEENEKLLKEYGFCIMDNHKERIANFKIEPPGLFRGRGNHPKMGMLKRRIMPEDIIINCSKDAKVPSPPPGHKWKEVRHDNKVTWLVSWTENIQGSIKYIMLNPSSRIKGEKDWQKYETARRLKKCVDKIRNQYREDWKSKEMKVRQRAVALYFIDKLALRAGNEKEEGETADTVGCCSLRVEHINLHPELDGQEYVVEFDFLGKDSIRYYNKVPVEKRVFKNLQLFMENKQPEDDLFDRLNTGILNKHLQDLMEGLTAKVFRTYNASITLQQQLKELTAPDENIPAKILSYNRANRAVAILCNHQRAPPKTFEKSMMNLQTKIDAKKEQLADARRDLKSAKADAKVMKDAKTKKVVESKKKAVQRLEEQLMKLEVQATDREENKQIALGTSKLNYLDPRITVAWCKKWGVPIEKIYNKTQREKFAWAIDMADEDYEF
UniProt O95985: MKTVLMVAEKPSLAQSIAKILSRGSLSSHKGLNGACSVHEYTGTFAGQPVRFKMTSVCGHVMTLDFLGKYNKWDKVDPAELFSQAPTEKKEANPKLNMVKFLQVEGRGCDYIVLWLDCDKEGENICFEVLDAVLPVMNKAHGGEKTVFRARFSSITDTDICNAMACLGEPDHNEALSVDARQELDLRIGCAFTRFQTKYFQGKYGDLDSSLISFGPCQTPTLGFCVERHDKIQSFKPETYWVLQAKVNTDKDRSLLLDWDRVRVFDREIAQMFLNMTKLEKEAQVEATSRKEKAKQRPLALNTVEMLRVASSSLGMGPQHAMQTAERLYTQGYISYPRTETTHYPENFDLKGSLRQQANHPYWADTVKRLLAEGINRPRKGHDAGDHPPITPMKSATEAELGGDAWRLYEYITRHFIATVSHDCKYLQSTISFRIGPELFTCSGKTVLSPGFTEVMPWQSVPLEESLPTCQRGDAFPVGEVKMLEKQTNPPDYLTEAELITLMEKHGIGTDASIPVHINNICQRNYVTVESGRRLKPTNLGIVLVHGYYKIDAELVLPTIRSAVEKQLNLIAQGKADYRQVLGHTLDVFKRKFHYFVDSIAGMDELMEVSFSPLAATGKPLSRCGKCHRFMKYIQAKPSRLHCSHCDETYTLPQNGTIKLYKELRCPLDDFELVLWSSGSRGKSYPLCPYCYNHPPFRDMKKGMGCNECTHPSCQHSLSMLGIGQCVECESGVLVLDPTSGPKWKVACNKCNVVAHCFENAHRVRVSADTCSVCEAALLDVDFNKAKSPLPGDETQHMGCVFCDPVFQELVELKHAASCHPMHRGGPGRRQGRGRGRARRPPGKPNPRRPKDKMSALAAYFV
UniProt P06753, whole entry, looked up: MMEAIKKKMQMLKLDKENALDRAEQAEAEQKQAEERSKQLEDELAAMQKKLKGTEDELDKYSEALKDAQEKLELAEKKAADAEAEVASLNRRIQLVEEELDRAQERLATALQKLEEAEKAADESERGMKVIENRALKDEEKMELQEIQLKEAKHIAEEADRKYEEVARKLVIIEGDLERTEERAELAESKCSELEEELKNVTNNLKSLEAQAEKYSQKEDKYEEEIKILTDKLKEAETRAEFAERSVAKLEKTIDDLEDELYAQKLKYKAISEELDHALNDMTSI
UniProt Q9H497: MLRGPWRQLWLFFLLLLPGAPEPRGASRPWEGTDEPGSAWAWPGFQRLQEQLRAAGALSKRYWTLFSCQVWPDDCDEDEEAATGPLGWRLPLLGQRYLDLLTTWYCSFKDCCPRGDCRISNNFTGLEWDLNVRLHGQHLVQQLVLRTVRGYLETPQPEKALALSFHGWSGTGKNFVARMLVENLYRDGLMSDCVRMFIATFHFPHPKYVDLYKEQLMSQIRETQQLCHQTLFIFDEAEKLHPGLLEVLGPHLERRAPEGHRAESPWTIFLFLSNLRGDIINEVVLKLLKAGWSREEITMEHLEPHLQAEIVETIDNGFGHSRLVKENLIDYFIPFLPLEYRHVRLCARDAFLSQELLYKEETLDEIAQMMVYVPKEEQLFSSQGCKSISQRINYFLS
UniProt Q8WW01: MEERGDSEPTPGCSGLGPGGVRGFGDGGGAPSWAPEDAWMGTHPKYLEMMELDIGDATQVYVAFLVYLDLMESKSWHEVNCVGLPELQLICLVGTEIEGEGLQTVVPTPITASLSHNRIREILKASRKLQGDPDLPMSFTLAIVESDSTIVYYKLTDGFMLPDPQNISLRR

The targets below were run with C1COCCN1CCN2C3=CC=CC=C3N=C2NC(=O)C4=CC(=CC=C4)[N+](=O)[O-] [IRAK-1-4 Inhibitor I] (assay: log2 fold change, soluble protein after heating vs DMSO (PISA); higher = thermal stabilisation; K562 cells, 10 uM, 30 min; active = over 0.2 and 3.5 SD of the protein, either way, in both replicates (recomputed)).
Method in brief: (§1)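 K562 cells (2×10^6 cells/mL) were treated with 10 μM compound for 30 min, and aliquots were heated for 3 min over 48°C-58°C. Pooled aliquots were extracted in PBS with 0.5% NP-40 at 4°C, and the supernatant after 21,000xg for 90 min was measured by TMTpro 16plex LC-MS/MS with channel sums equalised. Reported thermal stability, relative to control samples and from duplicates, is a log2 fold change.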

| Target | log2 fold change |
| --- | --- |
| TRIM25 (UniProt Q14258) | inactive: -0.134 |
| TOMM34 (UniProt Q15785) | inactive: -0.057 |
| TRIP11 (UniProt Q15643) | inactive: -0.054 |
| TRIM24 (UniProt O15164) | inactive: -0.028 |
| TPP2 (UniProt P29144) | inactive: -0.234 |
| TSEN34 (UniProt Q9BSV6) | inactive: 0.047 |
| TRIAP1 (UniProt O43715) | inactive: 0.035 |
| TP53RK (UniProt Q96S44) | inactive: 0.027 |
| TRIP13 (UniProt Q15645) | inactive: 0.015 |
| TRIO (UniProt O75962) | inactive: -0.158 |
| TSC22D2 (UniProt O75157) | inactive: 0 |
| TRAPPC10 (UniProt P48553) | inactive: 0.002 |
| TRMT112 (UniProt Q9UI30) | inactive: 0.011 |
| TOMM70 (UniProt O94826) | inactive: -0.001 |
| TOMM40 (UniProt O96008) | inactive: -0.021 |
| TOP2B (UniProt Q02880) | inactive: -0.137 |
| TNIK isoform 6 (UniProt Q9UKE5) | inactive: -0.011 |

| Target | log2 fold change |
| --- | --- |
| TOR4A (UniProt Q9NXH8) | inactive: -0.02 |
| TOP1 (UniProt P11387) | inactive: -0.215 |
| TPM4, A0A2R8Y5V9 | inactive: 0.099 |
| TRAF6 (UniProt Q9Y4K3) | inactive: 0.016 |
| TRRAP (UniProt Q9Y4A5) | inactive: 0.01 |
| TOP3B (UniProt O95985) | inactive: -0.027 |
| TNFRSF1B (UniProt P20333) | inactive: 0.024 |
| TPT1 (UniProt P13693) | inactive: 0.02 |
| TRMT61B (UniProt Q9BVS5) | inactive: -0.071 |
| TOLLIP (UniProt Q9H0E2) | inactive: 0.011 |
| TOR1AIP2 (UniProt Q8NFQ8) | inactive: 0.006 |
| TPM3 isoform 4 (UniProt P06753) | inactive: 0.029 |
| TOR3A (UniProt Q9H497) | inactive: 0.014 |
| TOMM22 (UniProt Q9NS69) | inactive: 0.015 |
| TSC22D4 (UniProt Q9Y3Q8) | inactive: 0.038 |
| TSEN15 (UniProt Q8WW01) | inactive: -0.084 |

The targets below were run with C=CC(=O)N1CCC[C@@H](n2nc(-c3ccc(Oc4ccccc4)cc3)c3c(N)ncnc32)C1 [ibrutinib] in the same assay as above.
Method in brief: as §1

| Target | log2 fold change |
| --- | --- |
| TRIM25 (UniProt Q14258) | inactive: -0.034 |
| TOMM34 (UniProt Q15785) | inactive: -0.077 |
| TRIP11 (UniProt Q15643) | inactive: 0.191 |
| TRIM24 (UniProt O15164) | inactive: 0.009 |
| TPP2 (UniProt P29144) | inactive: -0.097 |
| TSEN34 (UniProt Q9BSV6) | inactive: 0.01 |
| TRIAP1 (UniProt O43715) | inactive: -0.007 |
| TP53RK (UniProt Q96S44) | inactive: 0.025 |
| TRIP13 (UniProt Q15645) | inactive: -0.013 |
| TRIO (UniProt O75962) | inactive: -0.035 |
| TSC22D2 (UniProt O75157) | inactive: 0.007 |
| TRAPPC10 (UniProt P48553) | inactive: 0.014 |
| TRMT112 (UniProt Q9UI30) | inactive: -0.003 |
| TOMM70 (UniProt O94826) | inactive: -0.043 |
| TOMM40 (UniProt O96008) | inactive: -0.004 |
| TOP2B (UniProt Q02880) | inactive: 0.079 |
| TNIK isoform 6 (UniProt Q9UKE5) | inactive: 0.03 |

| Target | log2 fold change |
| --- | --- |
| TOR4A (UniProt Q9NXH8) | inactive: -0.014 |
| TOP1 (UniProt P11387) | inactive: 0.024 |
| TPM4, A0A2R8Y5V9 | inactive: 0.015 |
| TRAF6 (UniProt Q9Y4K3) | inactive: 0.035 |
| TRRAP (UniProt Q9Y4A5) | inactive: -0.013 |
| TOP3B (UniProt O95985) | inactive: -0.008 |
| TNFRSF1B (UniProt P20333) | inactive: -0.012 |
| TPT1 (UniProt P13693) | inactive: 0 |
| TRMT61B (UniProt Q9BVS5) | inactive: 0.01 |
| TOLLIP (UniProt Q9H0E2) | inactive: 0.006 |
| TOR1AIP2 (UniProt Q8NFQ8) | inactive: -0.004 |
| TPM3 isoform 4 (UniProt P06753) | inactive: 0.01 |
| TOR3A (UniProt Q9H497) | inactive: 0.06 |
| TOMM22 (UniProt Q9NS69) | inactive: -0.011 |
| TSC22D4 (UniProt Q9Y3Q8) | inactive: 0.026 |
| TSEN15 (UniProt Q8WW01) | inactive: -0.005 |

The targets below were run with CC(=O)c1cnc2ccc(-c3cc(Cl)c(O)c(Cl)c3)nc2c1N[C@H]1CC[C@H](CN(C)C)CC1 in the same assay as above.
Method in brief: as §1

| Target | log2 fold change |
| --- | --- |
| TRIM25 (UniProt Q14258) | inactive: 0.024 |
| TOMM34 (UniProt Q15785) | inactive: -0.001 |
| TRIP11 (UniProt Q15643) | inactive: -0.069 |
| TRIM24 (UniProt O15164) | inactive: -0.195 |
| TPP2 (UniProt P29144) | inactive: 0.114 |
| TSEN34 (UniProt Q9BSV6) | inactive: -0.063 |
| TRIAP1 (UniProt O43715) | inactive: -0.071 |
| TP53RK (UniProt Q96S44) | inactive: -0.008 |
| TRIP13 (UniProt Q15645) | inactive: -0.005 |
| TRIO (UniProt O75962) | inactive: 0.092 |
| TSC22D2 (UniProt O75157) | inactive: 0.027 |
| TRAPPC10 (UniProt P48553) | inactive: -0.158 |
| TRMT112 (UniProt Q9UI30) | inactive: -0.11 |
| TOMM70 (UniProt O94826) | inactive: -0.037 |
| TOMM40 (UniProt O96008) | inactive: 0.002 |
| TOP2B (UniProt Q02880) | inactive: 0.218 |
| TNIK isoform 6 (UniProt Q9UKE5) | inactive: -0.018 |

| Target | log2 fold change |
| --- | --- |
| TOR4A (UniProt Q9NXH8) | inactive: 0.073 |
| TOP1 (UniProt P11387) | inactive: 0.056 |
| TPM4, A0A2R8Y5V9 | inactive: -0.037 |
| TRAF6 (UniProt Q9Y4K3) | inactive: -0.103 |
| TRRAP (UniProt Q9Y4A5) | inactive: 0.017 |
| TOP3B (UniProt O95985) | inactive: 0.009 |
| TNFRSF1B (UniProt P20333) | inactive: 0.072 |
| TPT1 (UniProt P13693) | inactive: -0.019 |
| TRMT61B (UniProt Q9BVS5) | inactive: 0.091 |
| TOLLIP (UniProt Q9H0E2) | inactive: -0.039 |
| TOR1AIP2 (UniProt Q8NFQ8) | inactive: -0.001 |
| TPM3 isoform 4 (UniProt P06753) | inactive: 0.002 |
| TOR3A (UniProt Q9H497) | inactive: -0.02 |
| TOMM22 (UniProt Q9NS69) | inactive: -0.06 |
| TSC22D4 (UniProt Q9Y3Q8) | inactive: -0.053 |
| TSEN15 (UniProt Q8WW01) | inactive: -0.018 |
